Results: PubChem BioAssay AID2685 (National Center for Advancing Translational Sciences (NCATS), 2010)
The list shows a part of the results. The main result of the screen is listed elsewhere. These columns were measured beside it and carry no call. The list favours compounds with an active or inconclusive main result. Potencies come from curve fits of mixed quality, noted in brackets.

Assay: qHTS Assay for Lipid Storage Modulators in Drosophila S3 Cells;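 on cell number change: cells counted by Cell Tracker Red CMTPX staining in the red channel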
Conditions: BODIPY lipid droplet fluorescence, 18-24 h; for cell number change: measured here: cell count max response, cells fed with added oleic acid
How it was run: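 Drosophila S3 cells loaded with oleic acid (400 uM, as added) and compounds at several concentrations; lipid droplets imaged by 488-nm laser-scanning cytometry, 500–530 nm intensity and object ratio to cell channel. Percent activity normalized to 20 uM Triacsin C.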

[1] = measured here: lipid fluorescence (Fed channel) AC50, cells fed with added oleic acid
[2] = measured here: cell number channel AC50, cells fed with added oleic acid

SMILES	cell number change [%]	AC50 [1]	AC50 [2]
Cc1ccc(P(=Nc2ccccc2)(N2CCOCC2)N2CCOCC2)o1	-15.3	0.206 µM [falling, full curve]	–
CC(=O)Nc1nonc1-c1nc2ccccc2n1Cc1nnc(C)o1	-5.88	6.51 µM [rising, single point]	–
O=C(CSc1ccc(F)cc1)NCCSc1ccccc1	–	29.1 µM [rising, single point]	–
S=C(Nc1ccc2c(c1)OCCO2)Nc1ccccc1Cl	6.65	–	–
COc1cc(OC)c(C(=O)/C=C/c2ccc(OCc3ccccc3)c(OC)c2)c(OC)c1	34.4	–	0.116 µM [rising, full curve, poor fit]
CCOc1ccc(NC(=O)CN(C)C(=O)c2c(-c3ccccc3)noc2C)cc1OCC	-11	6.51 µM [rising, single point]	–
COC(=O)N/N=C/c1cc(Cl)cc(Cl)c1OCc1ccccc1	10.5	32.6 µM [rising, single point]	–
O=C(Nc1cccc(Cl)c1)N1CCN(c2ncccn2)CC1	–	–	3.66 µM [rising, partial curve]
COc1ccccc1NC(=O)NNC(=O)CCc1ccccc1	29.2	29.1 µM [rising, single point]	–
O=C1CN(C(=O)CNCc2ccc(Cl)cc2)c2ccccc2N1	–	0.0517 µM [falling, full curve, poor fit]	–
COCCCNC(=O)CCCn1c(=O)c2ccccc2n(CC(=O)Nc2c(C)cccc2C)c1=O	–	2.59 µM [rising, partial curve]	2.06 µM [rising, partial curve]
CCOC(=O)C1CCCN(C(=O)Cn2sc3nc(C)cc(C)c3c2=O)C1 (stereo not given)	-88.2	16.4 µM [falling, single point]	25.9 µM [falling, partial curve]
Cc1cc(C)cc(N(C(=O)c2sc(C)nc2C)C(C(=O)NCc2ccco2)c2ccccc2)c1 (stereo not given)	-4.29	18.4 µM [rising, partial curve]	–
Cc1cc(NC(=O)c2ccc(Cn3nc(C)c(Br)c3C)o2)no1	9.53	3.26 µM [rising, full curve]	–
CCN(Cc1ccncc1)Cc1ccc(OC)c(OC)c1	-10	–	–
CN1C(C(=O)NCC2CC2)CC2Cn3c(nc4ccccc43)C21 (stereo not given)	18.5	2.59 µM [falling, partial curve]	–
COCCn1cnc2c1c(=O)n(CC(=O)Nc1cc(C)on1)c(=O)n2Cc1ccccc1	48.4	29.1 µM [rising, single point]	20.6 µM [rising, partial curve, poor fit]
O=C(Nc1ccc(N2CCOCC2)cc1)Nc1ccc(Cl)c(Cl)c1	12	–	0.651 µM [rising, partial curve]
O=C(c1cc(-c2cccc(Cl)c2)on1)N1CCN(c2ccc(F)cc2)CC1	10.8	–	–
O=C(CCc1ccc(S(=O)(=O)NC2CCCCC2)cc1)Nc1ccccc1	25.4	20.6 µM [rising, partial curve]	–

SMILES	cell number change [%]	AC50 [1]	AC50 [2]
CCN(CC(=O)Nc1ccc2c(c1)OCCO2)CC(=O)Nc1cc(C)on1	13.4	13 µM [rising, single point]	–
CCNc1nc(N)c(C(=O)c2ccc(Cl)s2)s1	-22.5	0.92 µM [rising, full curve]	–
COc1cc(C(=O)N(Cc2ccccn2)CC2CCCO2)cc(OC)c1OC (stereo not given)	-29.1	–	0.164 µM [falling, full curve, poor fit]
NC(=O)C[C@@H]1N[C@]2(C(=O)Nc3ccccc32)[C@@H]2C(=O)N(C3CCCCC3)C(=O)[C@H]12	-3.68	3.66 µM [falling, full curve, poor fit]	0.092 µM [falling, full curve]
CCOc1ccc(Nc2oc(Cc3ccccc3)nc2C#N)cc1	71.4	6.51 µM [rising, single point]	8.2 µM [rising, partial curve]
CCc1ccc(-c2nc(SCC(=O)N(C)C3CCS(=O)(=O)C3)n[nH]2)cc1 (stereo not given)	-29.3	–	–
O=C(NCc1cccs1)c1cccnc1SCCS(=O)(=O)c1ccc(C(F)(F)F)cn1	-54.3	29.1 µM [falling, single point]	1.03 µM [falling, full curve, poor fit]
COC(=O)CCCCC(=O)OC	-4.52	29.1 µM [rising, single point]	–
CN(C)CCN(C(=O)CN1C(=O)c2ccccc2C1=O)c1nc2cc3c(cc2s1)OCO3	7.76	1.16 µM [rising, full curve, poor fit]	–
CCC(=O)NC(=S)Nc1ccc(NC(=O)c2ccc([N+](=O)[O-])cc2)cc1	59.5	16.4 µM [rising, single point]	9.2 µM [rising, single point]
CCC(C)(C)C1CCc2[nH]nc(C(=O)NC3CCCC3)c2C1 (stereo not given)	15.8	4.61 µM [falling, single point]	2.91 µM [falling, single point]
COc1cccc(C(=O)/C=C/Nc2ccc(S(=O)(=O)Nc3cc(OC)nc(OC)n3)cc2)c1	3.85	29.1 µM [rising, partial curve]	–
CS(=O)(=O)N1CCc2cc(C(=O)N3CCN(c4ccccc4F)CC3)ccc21	-12.5	0.58 µM [falling, single point]	–
CCCCc1ccc(NC(=O)c2c(C)noc2C)cc1	–	0.58 µM [falling, single point]	–
O=C(c1cc2n(n1)C(C(F)(F)F)CC(c1ccco1)N2)N1CCc2ccccc2C1 (stereo not given)	-34.3	6.51 µM [rising, single point]	16.4 µM [falling, single point]
CCOC(=O)Cc1c(C)c2c(C)nn(-c3ccccc3)c2oc1=O	-19.2	–	–
CCOC(CCn1c(SCc2cccc([N+](=O)[O-])c2)nc2ccccc2c1=O)OCC	8.51	6.51 µM [rising, single point]	–
Clc1cccc(Cl)c1Cn1cc(Br)cn1	-0.594	–	–
CC1=C(C(=O)Nc2ccccc2C(=O)NCCCN2CCN(C)CC2)SCCO1	16.2	–	–

Reformatted with bars between the fields: part of the list above.
SMILES | cell number change [%] | AC50 [1] | AC50 [2]
CCN(CC(=O)Nc1ccc2c(c1)OCCO2)CC(=O)Nc1cc(C)on1 | 13.4 | 13 µM [rising, single point] | –
CCNc1nc(N)c(C(=O)c2ccc(Cl)s2)s1 | -22.5 | 0.92 µM [rising, full curve] | –
COc1cc(C(=O)N(Cc2ccccn2)CC2CCCO2)cc(OC)c1OC (stereo not given) | -29.1 | – | 0.164 µM [falling, full curve, poor fit]
NC(=O)C[C@@H]1N[C@]2(C(=O)Nc3ccccc32)[C@@H]2C(=O)N(C3CCCCC3)C(=O)[C@H]12 | -3.68 | 3.66 µM [falling, full curve, poor fit] | 0.092 µM [falling, full curve]
CCOc1ccc(Nc2oc(Cc3ccccc3)nc2C#N)cc1 | 71.4 | 6.51 µM [rising, single point] | 8.2 µM [rising, partial curve]
CCc1ccc(-c2nc(SCC(=O)N(C)C3CCS(=O)(=O)C3)n[nH]2)cc1 (stereo not given) | -29.3 | – | –
CN(C)CCN(C(=O)CN1C(=O)c2ccccc2C1=O)c1nc2cc3c(cc2s1)OCO3 | 7.76 | 1.16 µM [rising, full curve, poor fit] | –
CCCCc1ccc(NC(=O)c2c(C)noc2C)cc1 | – | 0.58 µM [falling, single point] | –
CCOC(=O)Cc1c(C)c2c(C)nn(-c3ccccc3)c2oc1=O | -19.2 | – | –
CCOC(CCn1c(SCc2cccc([N+](=O)[O-])c2)nc2ccccc2c1=O)OCC | 8.51 | 6.51 µM [rising, single point] | –
